# Results as given in the supplement of paper PMC6411743.
# Sequences of proteins named here, by UniProt entry; tags and fusion partners are left off. A change or cut given only in a name is not applied to a line headed by its entry.
# UniProt Q9UL33, whole entry: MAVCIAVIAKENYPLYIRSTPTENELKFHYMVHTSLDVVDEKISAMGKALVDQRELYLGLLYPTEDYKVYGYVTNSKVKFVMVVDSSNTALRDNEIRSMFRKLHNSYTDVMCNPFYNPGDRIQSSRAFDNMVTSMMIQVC
# UniProt P15151: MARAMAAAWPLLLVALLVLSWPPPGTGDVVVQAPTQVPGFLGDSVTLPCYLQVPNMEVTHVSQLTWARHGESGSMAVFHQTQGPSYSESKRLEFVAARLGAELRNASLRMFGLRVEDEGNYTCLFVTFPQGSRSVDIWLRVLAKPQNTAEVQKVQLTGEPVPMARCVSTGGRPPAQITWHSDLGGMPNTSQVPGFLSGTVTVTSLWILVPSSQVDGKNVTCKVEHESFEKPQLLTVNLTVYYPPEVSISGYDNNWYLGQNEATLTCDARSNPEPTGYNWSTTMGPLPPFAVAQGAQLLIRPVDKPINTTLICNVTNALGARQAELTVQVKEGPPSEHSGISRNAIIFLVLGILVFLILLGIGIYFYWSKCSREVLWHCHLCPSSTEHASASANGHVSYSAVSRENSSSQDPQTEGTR
# UniProt P09211: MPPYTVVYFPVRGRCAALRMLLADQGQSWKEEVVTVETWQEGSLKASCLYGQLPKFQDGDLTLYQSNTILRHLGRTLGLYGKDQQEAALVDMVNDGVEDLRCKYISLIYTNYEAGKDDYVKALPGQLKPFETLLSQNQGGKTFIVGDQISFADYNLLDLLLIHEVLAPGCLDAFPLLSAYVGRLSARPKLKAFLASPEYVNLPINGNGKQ
# UniProt Q5T8I9: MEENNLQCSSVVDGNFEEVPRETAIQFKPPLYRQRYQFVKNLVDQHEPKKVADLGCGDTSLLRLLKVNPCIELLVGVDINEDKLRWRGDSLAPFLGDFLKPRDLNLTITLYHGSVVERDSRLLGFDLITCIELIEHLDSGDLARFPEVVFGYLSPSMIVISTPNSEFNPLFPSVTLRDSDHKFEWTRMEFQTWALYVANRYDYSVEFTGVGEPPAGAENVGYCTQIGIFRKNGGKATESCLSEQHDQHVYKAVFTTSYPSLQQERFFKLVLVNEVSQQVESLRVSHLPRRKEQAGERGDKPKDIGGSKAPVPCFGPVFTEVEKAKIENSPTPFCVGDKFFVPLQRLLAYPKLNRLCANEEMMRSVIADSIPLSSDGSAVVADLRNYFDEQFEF
# UniProt Q7Z3E5: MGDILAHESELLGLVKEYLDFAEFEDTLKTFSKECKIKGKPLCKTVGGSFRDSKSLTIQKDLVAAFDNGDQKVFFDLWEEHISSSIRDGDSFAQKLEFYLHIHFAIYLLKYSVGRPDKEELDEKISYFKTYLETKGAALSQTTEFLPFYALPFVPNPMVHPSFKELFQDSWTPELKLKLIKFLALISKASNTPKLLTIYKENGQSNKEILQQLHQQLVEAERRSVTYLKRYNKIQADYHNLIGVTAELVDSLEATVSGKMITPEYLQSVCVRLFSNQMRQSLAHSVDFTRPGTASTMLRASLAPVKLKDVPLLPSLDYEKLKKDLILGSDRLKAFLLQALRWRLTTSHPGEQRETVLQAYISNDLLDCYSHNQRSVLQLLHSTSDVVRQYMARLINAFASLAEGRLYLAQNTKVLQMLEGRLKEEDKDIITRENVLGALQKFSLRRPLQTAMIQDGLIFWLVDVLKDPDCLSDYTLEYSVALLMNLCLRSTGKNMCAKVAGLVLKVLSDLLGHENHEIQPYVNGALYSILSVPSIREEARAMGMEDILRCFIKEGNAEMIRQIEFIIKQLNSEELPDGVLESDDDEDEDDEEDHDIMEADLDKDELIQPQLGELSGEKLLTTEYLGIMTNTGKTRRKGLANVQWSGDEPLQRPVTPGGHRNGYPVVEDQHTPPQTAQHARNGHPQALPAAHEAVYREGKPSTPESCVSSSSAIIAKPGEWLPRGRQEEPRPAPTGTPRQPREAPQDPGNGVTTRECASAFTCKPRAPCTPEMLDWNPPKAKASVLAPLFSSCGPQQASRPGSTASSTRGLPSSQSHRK
# UniProt P57105: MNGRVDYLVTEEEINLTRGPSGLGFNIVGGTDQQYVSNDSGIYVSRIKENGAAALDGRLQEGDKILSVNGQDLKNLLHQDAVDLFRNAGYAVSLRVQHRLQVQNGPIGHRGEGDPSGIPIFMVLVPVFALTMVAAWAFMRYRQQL
# UniProt Q9Y388: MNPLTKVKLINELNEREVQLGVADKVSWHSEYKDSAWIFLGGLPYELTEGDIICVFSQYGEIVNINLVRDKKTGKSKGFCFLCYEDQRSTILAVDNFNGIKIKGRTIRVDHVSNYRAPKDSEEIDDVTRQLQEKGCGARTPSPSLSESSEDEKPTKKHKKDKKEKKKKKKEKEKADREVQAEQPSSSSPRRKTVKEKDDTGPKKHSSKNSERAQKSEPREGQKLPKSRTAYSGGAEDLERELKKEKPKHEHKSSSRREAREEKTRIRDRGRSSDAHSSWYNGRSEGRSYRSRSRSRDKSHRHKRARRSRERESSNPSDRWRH
# UniProt P28715: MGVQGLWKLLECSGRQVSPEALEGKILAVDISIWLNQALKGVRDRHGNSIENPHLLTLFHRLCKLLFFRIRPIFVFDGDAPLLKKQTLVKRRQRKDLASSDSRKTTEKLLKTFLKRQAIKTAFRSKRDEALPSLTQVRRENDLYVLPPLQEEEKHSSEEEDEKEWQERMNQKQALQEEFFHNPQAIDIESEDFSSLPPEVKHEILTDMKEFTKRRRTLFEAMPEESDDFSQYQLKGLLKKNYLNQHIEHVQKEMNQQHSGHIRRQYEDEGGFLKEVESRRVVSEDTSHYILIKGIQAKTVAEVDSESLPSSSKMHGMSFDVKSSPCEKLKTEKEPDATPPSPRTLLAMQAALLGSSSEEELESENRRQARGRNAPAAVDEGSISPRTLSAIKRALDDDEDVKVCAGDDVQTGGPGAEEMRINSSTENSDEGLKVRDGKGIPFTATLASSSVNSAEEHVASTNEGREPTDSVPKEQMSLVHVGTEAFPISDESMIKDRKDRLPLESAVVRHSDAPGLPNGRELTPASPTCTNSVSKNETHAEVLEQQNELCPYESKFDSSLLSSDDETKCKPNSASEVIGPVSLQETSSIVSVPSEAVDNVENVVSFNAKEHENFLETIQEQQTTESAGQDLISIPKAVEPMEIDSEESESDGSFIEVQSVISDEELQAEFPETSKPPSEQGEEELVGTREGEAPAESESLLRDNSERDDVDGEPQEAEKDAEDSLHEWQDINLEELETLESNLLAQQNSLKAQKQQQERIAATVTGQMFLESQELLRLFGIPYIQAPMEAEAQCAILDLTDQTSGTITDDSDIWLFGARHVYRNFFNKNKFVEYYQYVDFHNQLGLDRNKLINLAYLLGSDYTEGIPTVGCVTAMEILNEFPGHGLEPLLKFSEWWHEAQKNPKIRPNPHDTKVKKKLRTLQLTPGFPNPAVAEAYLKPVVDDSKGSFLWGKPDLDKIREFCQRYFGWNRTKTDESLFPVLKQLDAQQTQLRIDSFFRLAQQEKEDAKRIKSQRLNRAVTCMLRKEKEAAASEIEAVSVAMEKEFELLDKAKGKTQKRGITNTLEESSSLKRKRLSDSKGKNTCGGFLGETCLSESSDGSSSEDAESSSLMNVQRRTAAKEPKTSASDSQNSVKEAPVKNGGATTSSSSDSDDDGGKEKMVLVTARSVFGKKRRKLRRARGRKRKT
# UniProt Q9NP79: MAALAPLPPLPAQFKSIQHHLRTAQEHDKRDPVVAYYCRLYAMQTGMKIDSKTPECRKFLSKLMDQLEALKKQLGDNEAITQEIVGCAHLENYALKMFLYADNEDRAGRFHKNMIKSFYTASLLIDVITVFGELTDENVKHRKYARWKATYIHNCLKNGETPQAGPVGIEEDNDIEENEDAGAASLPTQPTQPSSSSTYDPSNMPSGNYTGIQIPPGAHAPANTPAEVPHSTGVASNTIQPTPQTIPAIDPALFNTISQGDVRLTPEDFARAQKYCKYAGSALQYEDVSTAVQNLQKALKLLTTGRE
# UniProt Q15345: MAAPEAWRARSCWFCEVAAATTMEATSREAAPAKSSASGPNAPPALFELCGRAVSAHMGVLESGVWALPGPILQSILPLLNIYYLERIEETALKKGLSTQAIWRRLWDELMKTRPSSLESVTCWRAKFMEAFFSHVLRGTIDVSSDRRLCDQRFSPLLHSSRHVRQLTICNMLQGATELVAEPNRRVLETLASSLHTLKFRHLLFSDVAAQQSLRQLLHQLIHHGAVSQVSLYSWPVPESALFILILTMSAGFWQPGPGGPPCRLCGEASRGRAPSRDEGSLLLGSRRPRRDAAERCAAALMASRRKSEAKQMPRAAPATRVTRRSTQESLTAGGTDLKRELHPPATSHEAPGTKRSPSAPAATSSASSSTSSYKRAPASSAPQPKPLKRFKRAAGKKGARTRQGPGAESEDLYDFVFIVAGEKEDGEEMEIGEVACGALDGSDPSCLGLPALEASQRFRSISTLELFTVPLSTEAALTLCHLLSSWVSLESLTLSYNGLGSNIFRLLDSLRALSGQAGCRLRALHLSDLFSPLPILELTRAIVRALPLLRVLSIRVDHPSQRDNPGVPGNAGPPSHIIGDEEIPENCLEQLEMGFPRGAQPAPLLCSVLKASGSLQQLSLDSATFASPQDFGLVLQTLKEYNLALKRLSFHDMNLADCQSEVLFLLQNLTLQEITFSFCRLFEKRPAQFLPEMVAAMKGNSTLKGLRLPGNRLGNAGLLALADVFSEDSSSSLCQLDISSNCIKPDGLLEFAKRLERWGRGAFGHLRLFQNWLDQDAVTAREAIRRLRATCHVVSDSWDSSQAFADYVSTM
# UniProt Q9Y2Y9: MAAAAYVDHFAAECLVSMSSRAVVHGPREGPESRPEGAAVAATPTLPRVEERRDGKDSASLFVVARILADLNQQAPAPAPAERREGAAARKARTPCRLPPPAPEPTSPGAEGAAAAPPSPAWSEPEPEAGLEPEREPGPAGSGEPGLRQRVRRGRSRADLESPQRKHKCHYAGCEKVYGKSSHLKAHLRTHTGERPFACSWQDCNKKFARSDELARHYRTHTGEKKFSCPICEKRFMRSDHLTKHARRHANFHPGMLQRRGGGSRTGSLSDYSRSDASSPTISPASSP
# UniProt Q15025: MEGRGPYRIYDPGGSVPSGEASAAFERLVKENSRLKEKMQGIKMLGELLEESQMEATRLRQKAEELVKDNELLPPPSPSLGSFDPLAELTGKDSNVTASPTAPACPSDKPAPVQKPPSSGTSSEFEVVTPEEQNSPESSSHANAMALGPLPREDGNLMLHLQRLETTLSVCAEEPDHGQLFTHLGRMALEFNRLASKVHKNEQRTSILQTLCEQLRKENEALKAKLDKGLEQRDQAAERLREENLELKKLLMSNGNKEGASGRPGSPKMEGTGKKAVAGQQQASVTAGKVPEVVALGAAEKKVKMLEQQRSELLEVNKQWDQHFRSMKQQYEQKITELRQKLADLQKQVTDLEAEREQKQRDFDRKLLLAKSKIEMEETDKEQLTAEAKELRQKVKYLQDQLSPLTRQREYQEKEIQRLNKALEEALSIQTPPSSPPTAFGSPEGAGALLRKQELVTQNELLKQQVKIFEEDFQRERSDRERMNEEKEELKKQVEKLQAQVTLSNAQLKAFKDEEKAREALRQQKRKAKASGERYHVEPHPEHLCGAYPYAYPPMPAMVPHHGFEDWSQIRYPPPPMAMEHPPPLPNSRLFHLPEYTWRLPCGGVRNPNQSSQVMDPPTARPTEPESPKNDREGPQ
# UniProt Q9Y4X4: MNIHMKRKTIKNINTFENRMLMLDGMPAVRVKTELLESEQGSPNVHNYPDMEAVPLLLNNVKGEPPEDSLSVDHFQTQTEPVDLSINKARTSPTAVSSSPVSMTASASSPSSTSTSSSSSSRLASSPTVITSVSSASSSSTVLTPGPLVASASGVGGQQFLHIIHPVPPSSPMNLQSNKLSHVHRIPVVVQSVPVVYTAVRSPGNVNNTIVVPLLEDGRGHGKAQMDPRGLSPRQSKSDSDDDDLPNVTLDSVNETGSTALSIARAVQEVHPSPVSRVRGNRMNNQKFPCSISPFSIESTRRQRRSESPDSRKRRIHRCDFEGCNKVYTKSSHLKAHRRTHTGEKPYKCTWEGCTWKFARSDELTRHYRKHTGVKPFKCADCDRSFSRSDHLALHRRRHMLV
# UniProt Q9P0P8: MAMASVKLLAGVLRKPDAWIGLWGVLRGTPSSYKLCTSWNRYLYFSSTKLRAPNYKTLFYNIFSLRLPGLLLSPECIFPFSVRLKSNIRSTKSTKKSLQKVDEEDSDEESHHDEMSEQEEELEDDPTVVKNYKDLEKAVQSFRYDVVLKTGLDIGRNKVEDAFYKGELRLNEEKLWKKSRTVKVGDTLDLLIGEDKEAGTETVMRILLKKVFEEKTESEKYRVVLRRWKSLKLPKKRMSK
# UniProt Q15185: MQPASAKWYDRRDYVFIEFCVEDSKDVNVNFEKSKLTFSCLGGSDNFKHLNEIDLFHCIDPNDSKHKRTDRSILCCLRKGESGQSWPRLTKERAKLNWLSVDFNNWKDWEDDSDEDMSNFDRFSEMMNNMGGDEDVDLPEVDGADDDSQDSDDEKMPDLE
# UniProt Q8IZQ5, whole entry, looked up: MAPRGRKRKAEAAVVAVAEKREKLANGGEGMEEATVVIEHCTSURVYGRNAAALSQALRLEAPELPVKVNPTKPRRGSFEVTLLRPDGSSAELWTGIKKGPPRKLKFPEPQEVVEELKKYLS
# ± gives the standard deviation of the averaged measurements. This is a selection; strong and weak results do not stand in their true shares.
# Compound: Nc1ncnc2c1ncn2[C@@H]1O[C@H](COP(=O)(O)OP(=O)(O)OP(=O)(O)O)[C@@H](O)[C@H]1O [adenosine triphosphate]
# Experiment: NP40-soluble protein abundance relative to vehicle (solubility fold change) (ratio); higher = more soluble protein in presence of ATP
# Details: concentration: 10mM
# Method in brief: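 Values are fold changes against the detergent-processed vehicle, based on vsn-normalised intensities. Jurkat crude lysate was treated at eight concentrations from 0.1 to 10 mM (10 min at room temperature, then 3 min at 37 °C), solubilised with 0.8% NP40 and benzonase, ultracentrifuged and analysed by TMT-labelled LC-MS/MS over three independent experiments.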
row,Target,NP40-soluble protein abundance
1,A0A087WZ62,0.968 ± 0.0087
2,A0A087WVF4|O14646 and related entries (UniProt O14646),1.26 ± 0.046
3,A0A0B4J294|H3BP13 and related entries (UniProt Q9UL33),0.946 ± 0.032
4,A0A087WY58|P51956 and related entries (UniProt P51956),0.984 ± 0.036
5,A0A0A0MSA9|A0A0C4DG49|P15151 and related entries (UniProt P15151),0.894 ± 0.096
6,A0A087X243|P09211 (UniProt P09211),0.94 ± 0.048
7,A0A0A0MRN1|Q5T8I9 (UniProt Q5T8I9),1.01 ± 0.1
8,A0A087X1I8|Q7Z3E5 and related entries (UniProt Q7Z3E5),1.02 ± 0.14
9,A0A087WUM0|A0A087WYV9|A0A087X1F5 (UniProt P57105),0.909 ± 0.051
10,A0A087WUI1|Q9Y388 (UniProt Q9Y388),1.41 ± 0.16
11,A0A087WUH0|P28715 (UniProt P28715),0.992 ± 0.019
12,A0A087WY55|Q9NP79 (UniProt Q9NP79),0.856 ± 0.12
13,A0A087WVB5|Q75MD7 and related entries (UniProt Q8WXX7),1.34 ± 0.32
14,A0A087WTU1|A0A087X0S7|A0A0B4J2G4|A0A0C4DH00|Q15345 and related entries (UniProt Q15345),0.953 ± 0.025
15,A0A087WXI0 (UniProt Q7Z6P3),0.969 ± 0.058
16,A0A087X159|P81877 and related entries (UniProt P81877),0.926 ± 0.053
17,A0A087X1K6|Q9Y2Y9 (UniProt Q9Y2Y9),0.899 ± 0.076
18,A0A0C4DFX9|Q9H3P2 (UniProt Q9H3P2),0.911 ± 0.055

# Quoted from the entries so far for reference:
row,Target,NP40-soluble protein abundance
6,A0A087X243|P09211 (UniProt P09211),0.94 ± 0.048
7,A0A0A0MRN1|Q5T8I9 (UniProt Q5T8I9),1.01 ± 0.1
8,A0A087X1I8|Q7Z3E5 and related entries (UniProt Q7Z3E5),1.02 ± 0.14
9,A0A087WUM0|A0A087WYV9|A0A087X1F5 (UniProt P57105),0.909 ± 0.051
10,A0A087WUI1|Q9Y388 (UniProt Q9Y388),1.41 ± 0.16
11,A0A087WUH0|P28715 (UniProt P28715),0.992 ± 0.019
12,A0A087WY55|Q9NP79 (UniProt Q9NP79),0.856 ± 0.12

# The list goes on.

row,Target,NP40-soluble protein abundance
1,A0A075B7B5|A2RUF3 and related entries (UniProt O75044),1.04 ± 0.011
2,A0A0A0MRZ4|E7EMV7 and related entries (UniProt Q15025),0.9375 ± 0.0033
3,A0A0A0MRU8|Q9Y4X4 (UniProt Q9Y4X4),1 ± 0.091
4,A0A087WUD1 (UniProt Q6DD87),0.976 ± 0.03
5,A0A0D9SEI0|Q9P0P8 (UniProt Q9P0P8),0.974 ± 0.07
6,A0A0C4DGS1|P39656 (UniProt P39656),0.983 ± 0.07
7,A0A0A0MTB0|A0A0J9YYI4|D6RHG7 and related entries (UniProt Q86VE9),0.962 ± 0.061
8,A0A087WYT3|Q15185 (UniProt Q15185),0.867 ± 0.059
9,A0A087WYP2|Q8IZQ5 (UniProt Q8IZQ5),1.12 ± 0.095
10,A0A0A0MQU4|Q96I15 (UniProt Q96I15),1.01 ± 0.039
11,A0A087WVS8|Q70IA6 and related entries (UniProt Q70IA6),0.965 ± 0.063
12,A0A087X2I1|P62333 (UniProt P62333),0.855 ± 0.031
13,A0A087WW39|P55198 (UniProt P55198),1.34 ± 0.11
14,A0A0A0MSK6|Q13017 and related entries (UniProt Q13017),1.02 ± 0.085
15,A0A0B4J2A0|Q9UHJ6 (UniProt Q9UHJ6),0.97 ± 0.017
16,A0A0A0MRW1|Q5T593 and related entries (UniProt Q8IW50),0.859 ± 0.13
17,A0A0A0MS18|C9JYJ0 and related entries (UniProt O15315),1.1 ± 0.042
18,A0A087WZ97|A0A087WZK6|A0A087X2C2|Q5T7M9 (UniProt Q5T7M9),0.964 ± 0.084
